# Screening data, single-dose tests

Measurements from “University of Dundee, Small-Polar-MMV Screening Library” (2021), ChEMBL document CHEMBL3988442.

Mtb glucose medium: 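Growth of Mycobacterium tuberculosis over 3 days (7H9 medium with glucose and tyloxapol); the read-out is not stated. Concentration: 500 µM. Higher reads as more growth inhibition (inferred: compounds with an IC50 in retests scored well above the rest). Size under these conditions: about 18,000 compounds, about 1,400 of them at 50% or above in at least one test.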
Mtb cholesterol medium: 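Growth of Mycobacterium tuberculosis over 4 days (cholesterol / DPPC medium with tyloxapol); the read-out is not stated. Concentration: 500 µM. The record gives no direction; compounds that gave an IC50 in retests scored well above the rest, so higher reads as more growth inhibition. Size under these conditions: about 18,000 compounds, about 900 of them at 50% or above in at least one test.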

Results are given as percent effect. The record does not define 0% and 100%; most values in the screen are far below 50% and negative numbers occur (in some assays of this library far below -100). This is an unselected part of the compounds tested.

| # | Compound | Mtb glucose medium | Mtb cholesterol medium |
|---|---|---|---|
| 1 | `NC(=O)C1(O)CCN(Cc2nc(C3CCCC3)no2)C1` (centres undefined) | 46.6% | 14.24% |
| 2 | `COCCN1CCC(NC(=O)c2nccnc2N)C1` (centres undefined) | 4.441% | 1.84% |
| 3 | `NC(=O)CN1CCC(NC(=O)c2csc(Br)c2)CC1` | 36.1% | 25.96% |
| 4 | `Cc1cccc(NC(=O)N(C)CCn2cccn2)n1` | 18.6% | 10.15% |
| 5 | `NC(=O)CC1CCCCN1c1ccc(C(F)(F)F)cn1` (centres undefined) | 46.15% | 5.713% |
| 6 | `CN(Cc1cc(F)cc2cccnc12)S(C)(=O)=O` | 11.97% | 0.9292% |
| 7 | `CCS(=O)(=O)c1ccccc1C(=O)N1CCOC(C)C1` (centres undefined) | 7.913% | -4.046% |
| 8 | `O=C(NCC(=O)c1cccs1)c1ccon1` | 37.39% | 31.63% |
| 9 | `Cc1ncsc1CCCNC(=O)c1cn[nH]c1` | 12.49% | 16.94% |
| 10 | `CC1CCCN(C(=O)c2ccc(-n3cccn3)nc2)C1` (centres undefined) | -2.384% | 1.188% |
| 11 | `Cc1cc(NC(=O)NCCCN2CCCC2=O)ccn1` | 10.42% | -0.1125% |
| 12 | `CSCC(C)(O)CNC(=O)CC1=CCCCC1` (centres undefined) | 38.94% | 14.16% |
| 13 | `CCOC(=O)CC1C(=O)NCCN1Cc1ccoc1` (centres undefined) | 12.85% | 2.755% |
| 14 | `O=C(Nc1nncs1)c1ccccn1` | 73.71% | 46.03% |
| 15 | `CCOC(=O)N1CCN(C(=O)Cc2cccs2)CC1` | 69.47% | 4.44% |
| 16 | `CN(Cc1ccoc1)C(=O)CN(C)C1CCS(=O)(=O)C1` (centres undefined) | 8.689% | -2.174% |
| 17 | `N#CCc1ccc(NC(C(N)=O)c2ccccc2)cc1` (centres undefined) | 38.27% | 6.522% |
| 18 | `CNC(=O)c1ccc(C)c(NC(=O)c2ccco2)c1` | -1.511% | -10.72% |
| 19 | `CCCC(N)CNS(=O)(=O)c1ccc(C#N)cc1` (centres undefined) | 18.05% | 22.07% |
| 20 | `CC(=O)NCCNC(=O)CN1CCNC(=O)C1C` (centres undefined) | 2.268% | -1.525% |
| 21 | `COc1ccc(C(=O)NCCSc2cnn[nH]2)cc1F` | 57.71% | 52.44% |
| 22 | `CSc1ncccc1C(=O)NCC(=O)NC1CC1` | -2.936% | -8.828% |
| 23 | `O=C(NCc1nnc2ccccn12)c1cncc(Br)c1` | -1.447% | -14.18% |
| 24 | `O=C(COCC(F)(F)F)NCc1cn2ccccc2n1` | 54.79% | 22.25% |
| 25 | `COCc1nc(CN2CCN(C(C)=O)CC2)no1` | -0.3392% | -0.8663% |
| 26 | `O=C(CN1CCCCCC1=O)OCC=CCl` | 38.2% | 29.28% |
| 27 | `CN(Cc1cccc(O)c1)C(=O)c1cc[nH]n1` | 17.79% | 8.565% |
| 28 | `CNC(C)(C)c1ccc2c(c1)OCO2` | 11.75% | 6.947% |
| 29 | `CCNC(=O)c1ccc2c(c1)CCN2` | 14.45% | 13.94% |
| 30 | `COCc1nc(C)cc(N(C)Cc2ccc(N)nc2)n1` | 28.16% | 11.67% |
| 31 | `NC1CCC(NC(=O)c2ccnc(C3CC3)n2)CC1` (centres undefined) | 25.07% | 3.385% |
| 32 | `CSCC[C@H](N)C(=O)N1CCOC2(CCC2)C1` | -8.58% | -11.53% |
| 33 | `CCC(O)CN1CCN(C(=O)c2cccn2C)CC1` (centres undefined) | 11.05% | -11.76% |
| 34 | `NCC(CO)c1ccccc1Cl` (centres undefined) | 15.33% | 0.5632% |
| 35 | `COCc1ccc(C(=O)NCc2cccc(F)c2)o1` | 65.52% | 59.12% |
| 36 | `Cc1n[nH]c(C)c1CNc1cc([C@H]2C[C@@H](O)C2)ncn1` | 23.65% | -1.252% |
| 37 | `NCc1cnn(-c2ccc(Br)cc2)c1` | 76.3% | 55.45% |
| 38 | `CCCOc1ccccc1C(=O)NC1CCNC1` (centres undefined) | -2.224% | 4.382% |
| 39 | `CCC(CC)n1nc(C)cc1C(=O)NC(C)(C)CO` | 4.539% | 21.56% |
| 40 | `CN(C)C(=O)C1CCCN1Cc1ncc(Cl)n1C` (centres undefined) | -3.472% | -4.224% |
| 41 | `CC(c1cccs1)n1nccc1N` (centres undefined) | 9.581% | -12.29% |
| 42 | `COc1ncccc1C(=O)NCCc1cncn1C` | 8.792% | 9.841% |
| 43 | `CSCC[C@H](NC(=O)C1CC1)c1nc2ccccc2[nH]1` | 6.215% | -25.9% |
| 44 | `COc1ccc(C(=O)NCCN(C)C)cc1F` | 8.396% | 6.285% |
| 45 | `CNCC(C)(O)c1ccccc1` (centres undefined) | 0.5772% | -1.947% |
| 46 | `CC(=O)c1c(F)cccc1N(C)CCC(C)O` (centres undefined) | 44.82% | 17.36% |
| 47 | `COCCN1CCCC(O)(CN2CCSCC2)C1=O` (centres undefined) | 1.801% | -3.31% |
| 48 | `CC(Nc1ccc(Cl)cc1)C(=O)NC(N)=O` (centres undefined) | 18.05% | -20.43% |
| 49 | `CC(C)NS(=O)(=O)c1cc(CN)ccc1F` | 61.3% | 13.25% |
| 50 | `Cc1ccc(C(=O)NCCNS(=O)(=O)C(C)C)cc1F` | 63.72% | 28.11% |
| 51 | `Cc1cc(N2CCOC(CN(C)CC(N)=O)C2)ccn1` (centres undefined) | 2.673% | 1.409% |
| 52 | `CN(C)CCn1nccc1N` | 13.11% | 0.04247% |
| 53 | `NS(=O)(=O)N(Cc1cccnc1)Cc1ccco1` | 10.66% | -8.63% |
| 54 | `O=C(Cn1cnnn1)Nc1ccc(SC(F)F)cc1` | 60.9% | 58.47% |
| 55 | `COCCNC(=O)c1c(Cl)cnn1C` | 12.25% | 4.348% |
| 56 | `COc1cc(C(C)N)ccc1OCc1ccncc1` (centres undefined) | 42.7% | 10.32% |
| 57 | `N#Cc1c(N)nc2c(c1-c1ccccc1)C(=O)CCC2` | -17.36% | -12.45% |
| 58 | `CCn1cc(C2CCNCC2)cn1` | -1.51% | -13.05% |
| 59 | `CC(=O)NCc1coc(-c2ccccc2)n1` | 6.594% | -15.9% |
| 60 | `CCCS(=O)(=O)N1CCC(CC(=O)NC)CC1` | 1.344% | 8.707% |
| 61 | `Cc1cc(CNC(=O)C2CCCCCN2C)n(C)n1` (centres undefined) | 10.77% | 6.51% |
| 62 | `NCCn1cc(C(=O)NCCSC2CCCCC2)nn1` | 61.4% | 5.584% |
| 63 | `NC1CCOC2(CCCC2)C1` (centres undefined) | 0.06486% | -23.54% |
| 64 | `CC[C@H](N)C(=O)N(C)CCOc1cccc(Cl)c1` | 63.68% | 49.34% |
| 65 | `Cc1cc(C)n2nc(C(=O)NC(C)C3CC3)nc2n1` (centres undefined) | -15.13% | 0.04283% |

Some entries from above, unchanged:

| Compound | Mtb glucose medium | Mtb cholesterol medium |
|---|---|---|
| `NS(=O)(=O)N(Cc1cccnc1)Cc1ccco1` | 10.66% | -8.63% |
| `CCC(O)CN1CCN(C(=O)c2cccn2C)CC1` (centres undefined) | 11.05% | -11.76% |
| `CC(=O)c1c(F)cccc1N(C)CCC(C)O` (centres undefined) | 44.82% | 17.36% |
| `COCc1ccc(C(=O)NCc2cccc(F)c2)o1` | 65.52% | 59.12% |
| `CCS(=O)(=O)c1ccccc1C(=O)N1CCOC(C)C1` (centres undefined) | 7.913% | -4.046% |
| `COc1ncccc1C(=O)NCCc1cncn1C` | 8.792% | 9.841% |
| `CNCC(C)(O)c1ccccc1` (centres undefined) | 0.5772% | -1.947% |
| `CC(=O)NCc1coc(-c2ccccc2)n1` | 6.594% | -15.9% |